These results are taken from article PMC3591265.

This experiment concerns the target T1, OsSET1 (E. coli two-hybrid fusion) (Oryza sativa) (UniProt Q10MI4).
T1 sequence: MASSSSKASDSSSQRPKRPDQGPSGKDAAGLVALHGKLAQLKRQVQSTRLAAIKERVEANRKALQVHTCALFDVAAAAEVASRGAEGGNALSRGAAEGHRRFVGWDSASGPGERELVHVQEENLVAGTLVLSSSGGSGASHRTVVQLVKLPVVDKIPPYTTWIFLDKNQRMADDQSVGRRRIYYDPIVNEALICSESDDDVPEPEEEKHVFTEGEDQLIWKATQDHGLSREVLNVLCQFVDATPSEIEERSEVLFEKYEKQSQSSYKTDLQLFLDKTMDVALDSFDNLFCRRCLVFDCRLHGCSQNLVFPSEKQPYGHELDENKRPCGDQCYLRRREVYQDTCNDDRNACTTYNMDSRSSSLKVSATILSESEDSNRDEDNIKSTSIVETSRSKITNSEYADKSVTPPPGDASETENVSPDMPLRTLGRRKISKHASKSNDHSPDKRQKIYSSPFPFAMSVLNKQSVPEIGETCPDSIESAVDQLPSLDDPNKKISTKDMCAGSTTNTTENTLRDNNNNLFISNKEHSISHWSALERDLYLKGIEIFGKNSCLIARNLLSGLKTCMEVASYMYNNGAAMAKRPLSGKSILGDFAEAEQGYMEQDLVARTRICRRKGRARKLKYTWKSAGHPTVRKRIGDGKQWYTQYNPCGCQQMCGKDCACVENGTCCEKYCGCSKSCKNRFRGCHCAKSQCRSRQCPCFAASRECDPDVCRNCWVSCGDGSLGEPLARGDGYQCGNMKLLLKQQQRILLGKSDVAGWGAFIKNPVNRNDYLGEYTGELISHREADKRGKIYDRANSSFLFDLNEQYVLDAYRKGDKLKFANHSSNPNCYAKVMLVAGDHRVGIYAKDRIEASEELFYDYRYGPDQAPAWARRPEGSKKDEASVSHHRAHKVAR
The experiment is described as follows: two-hybrid; E. coli two-hybrid (BacterioMatch II, Agilent); bait pBT and target pTRG co-transformed; selective medium with 3-AT, dual selective medium with 3-AT and streptomycin.

No constants are given. Whether binding was seen depends on the method and setting. Some results given as binding are weak or reduced against the parent protein; the word gives no strength. Tags and fused reporters may be left off the sequences shown.

B1: OsFIE2 (E. coli two-hybrid fusion) (protein, UniProt Q6ZJX0 1-376)
chain: MAKLGPGQGLGCEAAVGLLAPSRKREYKACNKLTEGKRPLYAIGFNFLDFHYYEVFATVGGNRVTTYSCLKDGNFAILQAYIDEDKDESFYTLSWACDLDGTPLLVAAGSNGIIRVINCATEKLLKTFVGHGDSINEIRTQALKPSLIISASKDESVRLWNVHTGICILIFAGAGGHRNEVLSVDFHPSDIYRIASCGMDNTVKIWSMKEFWPYVEQSFTWTDLPSKFPTKYVQFPVLVAVVHSNYVDCTRWLGDFILSKSVDNEIVLWEPKTKEQSPGEGSIDILQKYPVPECDIWFIKFSCDFHFNQLAIGNREGKVFVWEVQSSPPVLTARLTNPQCKSAIRQTAVSFDGSTILACSEDGSIWRWDEVDHPKA
Consider B1, for which the binding result is recorded as “binds”.

B2: OsCLF (E. coli two-hybrid fusion) (protein, UniProt Q5VN06 1-896)
chain: MAGDSRNEPMFCEEGSSESGYVLCVIDSLKKKITSDRFVYIQKRVEENSIKLSPITLHSHNLSKNRQTSTSNSTDLVSNLLTKRKEDALCAVNSRESSPDESEGANCQDECSSTVIVGGNLSARNSVRPIRLPEVATLPPYTTWIFLDRNQRMQEDQSVLGRRRIYYDTNCGEALICSDSEDEAVEDEEEKKEFKDSEDCIIRMTIQECGMSDAVLETLARDIERAPDDIKARYEILQGEKPEGSSKKVSELNVKMEDVYGDKDLDAALDSFDNLFCRRCLVFDCKLHGCSQDLVFPTEKQAPLCSSDEGTPCGIHCYKLVSKPDAIMEIDSHLLVDVEEPTSDNLKDQIGSNKKKLGSSGQKTKSQQSESSSTARVSSESSESEVQLLSNKSPQHSPGLSKNKLGAKGGIKKSTNRRIAERILMSVKKGQQEMSPDSNSIVNGCHWPRDMKLRSDTRSGIKDSVVSSQCNSPSTRSFRKKGTLQMENNSSFVDAQSDSMEDTNNEHSATDGCDSSRKEECVDESICRQEAHGRSWKVIEQGLLLKGLEIFGKNSCLIARNLLGGMKTCTDVFQYMNYIENSSASGALSGVDSLVKGYMKGNELRTRSRFVRRRGRVRRLKYTWKTAGYHFIRKRITERKDQPCRQYTPCGCQSACGKQCPCLTNGTCCEKYCGCPKMCKNRFRGCHCAKSQCRSRQCPCFAADRECDPDVCRNCWVGCGDGTLGVPNQRGDNYECRNMKLLLKQQQRVLLGRSDVSGWGAFLKNSVGKHEYLGEYTGELISHKEADKRGKIYDRENSSFLFNLNNEYVLDAYRMGDKLKFANHSPDPNCYAKVIMVAGDHRVGIFAKERISAGEELFYDYRYEPDRAPAWARKPEGPGAKDDAQPSTGRAKKLAH
Consider B2, for which the binding result is listed as “no binding”.
